In article PMC8097366, “The Dual Function of KDM5C in Both Gene Transcriptional Activation and Repression Promotes Breast Cancer Cell Growth and Tumorigenesis” (Advanced Science, 2021) one finds binding data, which are given here for four substances.

By UniProt entry, the sequences of proteins in these tests, tags left out. Where a name states a change or a piece, a line headed by the entry shows the natural chain unless it says otherwise.
UniProt P50750: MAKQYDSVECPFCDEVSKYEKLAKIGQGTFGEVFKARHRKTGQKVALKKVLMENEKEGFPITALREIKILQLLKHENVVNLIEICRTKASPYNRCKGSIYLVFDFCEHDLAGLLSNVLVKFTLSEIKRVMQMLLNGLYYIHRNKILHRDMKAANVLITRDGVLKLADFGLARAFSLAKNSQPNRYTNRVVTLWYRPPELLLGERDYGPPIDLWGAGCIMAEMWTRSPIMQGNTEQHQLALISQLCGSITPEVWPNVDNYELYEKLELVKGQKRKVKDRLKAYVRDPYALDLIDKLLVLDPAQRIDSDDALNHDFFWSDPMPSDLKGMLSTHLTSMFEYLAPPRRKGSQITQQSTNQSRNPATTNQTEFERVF
UniProt P03372: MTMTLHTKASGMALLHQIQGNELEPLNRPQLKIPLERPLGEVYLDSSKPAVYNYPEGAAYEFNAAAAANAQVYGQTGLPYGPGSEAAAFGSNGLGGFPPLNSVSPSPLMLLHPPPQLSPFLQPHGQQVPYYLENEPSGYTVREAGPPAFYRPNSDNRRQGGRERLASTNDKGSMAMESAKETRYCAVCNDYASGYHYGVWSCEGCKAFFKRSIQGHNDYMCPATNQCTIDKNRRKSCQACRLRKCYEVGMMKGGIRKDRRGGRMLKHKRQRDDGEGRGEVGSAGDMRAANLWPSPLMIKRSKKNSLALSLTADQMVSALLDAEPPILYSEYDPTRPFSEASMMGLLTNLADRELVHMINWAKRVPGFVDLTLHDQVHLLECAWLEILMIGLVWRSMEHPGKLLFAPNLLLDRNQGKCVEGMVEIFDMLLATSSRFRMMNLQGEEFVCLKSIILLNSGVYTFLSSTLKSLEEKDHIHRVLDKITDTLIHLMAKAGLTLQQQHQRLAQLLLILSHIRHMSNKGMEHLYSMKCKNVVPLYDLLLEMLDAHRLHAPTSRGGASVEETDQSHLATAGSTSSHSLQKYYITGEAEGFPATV
UniProt Q09472: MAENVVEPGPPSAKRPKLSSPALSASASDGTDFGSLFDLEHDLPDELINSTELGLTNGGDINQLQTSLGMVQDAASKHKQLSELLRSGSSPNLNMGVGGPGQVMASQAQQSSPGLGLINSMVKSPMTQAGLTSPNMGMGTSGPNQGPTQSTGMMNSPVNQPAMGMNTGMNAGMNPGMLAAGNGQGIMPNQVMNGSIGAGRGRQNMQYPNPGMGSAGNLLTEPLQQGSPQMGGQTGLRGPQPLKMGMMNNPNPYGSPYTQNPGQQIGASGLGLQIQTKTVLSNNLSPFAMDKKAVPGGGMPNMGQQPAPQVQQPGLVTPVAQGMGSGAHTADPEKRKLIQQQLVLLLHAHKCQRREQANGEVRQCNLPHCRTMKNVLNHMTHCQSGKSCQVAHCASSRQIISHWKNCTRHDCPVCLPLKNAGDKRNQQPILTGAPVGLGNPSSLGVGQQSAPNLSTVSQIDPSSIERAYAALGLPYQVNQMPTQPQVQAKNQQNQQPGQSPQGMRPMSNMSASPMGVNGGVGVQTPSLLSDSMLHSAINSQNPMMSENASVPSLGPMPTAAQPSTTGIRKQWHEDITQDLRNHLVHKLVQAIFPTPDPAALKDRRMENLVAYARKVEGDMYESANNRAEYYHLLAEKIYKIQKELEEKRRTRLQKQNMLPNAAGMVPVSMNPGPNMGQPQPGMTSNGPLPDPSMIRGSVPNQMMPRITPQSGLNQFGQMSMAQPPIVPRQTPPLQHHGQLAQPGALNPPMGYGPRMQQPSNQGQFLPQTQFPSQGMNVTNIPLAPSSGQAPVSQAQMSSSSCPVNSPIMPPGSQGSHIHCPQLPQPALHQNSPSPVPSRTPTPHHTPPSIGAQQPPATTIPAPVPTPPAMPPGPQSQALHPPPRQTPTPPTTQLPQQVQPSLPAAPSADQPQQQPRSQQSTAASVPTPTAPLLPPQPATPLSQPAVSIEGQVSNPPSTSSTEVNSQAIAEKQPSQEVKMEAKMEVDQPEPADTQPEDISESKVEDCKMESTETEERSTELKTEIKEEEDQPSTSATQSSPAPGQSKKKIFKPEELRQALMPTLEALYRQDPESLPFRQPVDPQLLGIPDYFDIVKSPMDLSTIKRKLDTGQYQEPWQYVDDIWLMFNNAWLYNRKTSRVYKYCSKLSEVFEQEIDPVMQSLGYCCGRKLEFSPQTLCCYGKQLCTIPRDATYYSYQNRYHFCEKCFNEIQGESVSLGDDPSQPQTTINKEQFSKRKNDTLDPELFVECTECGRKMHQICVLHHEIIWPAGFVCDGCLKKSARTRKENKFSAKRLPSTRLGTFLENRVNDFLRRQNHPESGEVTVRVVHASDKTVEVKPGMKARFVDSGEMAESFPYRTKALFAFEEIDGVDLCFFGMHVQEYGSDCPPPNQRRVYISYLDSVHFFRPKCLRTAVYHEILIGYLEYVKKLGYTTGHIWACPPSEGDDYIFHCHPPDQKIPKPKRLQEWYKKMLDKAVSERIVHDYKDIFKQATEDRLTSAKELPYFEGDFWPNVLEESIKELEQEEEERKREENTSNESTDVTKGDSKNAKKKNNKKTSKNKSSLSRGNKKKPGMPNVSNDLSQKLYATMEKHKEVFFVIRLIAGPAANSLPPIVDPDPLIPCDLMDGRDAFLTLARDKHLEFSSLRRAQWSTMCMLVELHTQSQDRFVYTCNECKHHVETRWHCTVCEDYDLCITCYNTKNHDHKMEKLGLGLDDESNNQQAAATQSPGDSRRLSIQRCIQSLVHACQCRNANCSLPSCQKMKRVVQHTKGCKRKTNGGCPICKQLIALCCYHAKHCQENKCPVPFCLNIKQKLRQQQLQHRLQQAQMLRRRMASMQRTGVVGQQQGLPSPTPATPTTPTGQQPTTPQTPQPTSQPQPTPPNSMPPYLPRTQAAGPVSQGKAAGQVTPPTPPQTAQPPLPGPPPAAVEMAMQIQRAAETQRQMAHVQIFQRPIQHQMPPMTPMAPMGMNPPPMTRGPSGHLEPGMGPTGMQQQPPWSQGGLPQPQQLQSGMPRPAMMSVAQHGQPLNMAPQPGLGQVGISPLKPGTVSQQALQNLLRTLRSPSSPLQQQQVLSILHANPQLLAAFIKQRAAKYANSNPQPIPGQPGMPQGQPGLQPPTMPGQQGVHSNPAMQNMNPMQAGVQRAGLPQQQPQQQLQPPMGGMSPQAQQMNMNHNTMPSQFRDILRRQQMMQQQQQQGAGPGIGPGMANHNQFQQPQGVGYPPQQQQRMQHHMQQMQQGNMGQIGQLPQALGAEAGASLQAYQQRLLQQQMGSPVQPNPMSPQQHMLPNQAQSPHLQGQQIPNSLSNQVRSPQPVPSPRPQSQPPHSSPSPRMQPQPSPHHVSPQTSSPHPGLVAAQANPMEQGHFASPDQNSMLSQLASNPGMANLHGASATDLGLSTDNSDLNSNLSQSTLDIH

These are yes or no findings as the source states them, for the method shown. Binding seen in cells or lysates may run through a third protein. Some entries that bind do so weakly or less than the wild type. For part of these data: Sequences can lack the tags named with a protein.

In assay [1] the target is KDM5C, endogenous in MCF7 (human (endogenous in MCF7)) (UniProt P41229). Nature of the assay: co-IP; endogenous proteins, nuclear extracts from MCF7 cells; IP with anti-KDM5C antibody (control IgG), protein A/G magnetic beads, 250 mM NaCl, 0.5% NP-40; immunoblotting. On the technique in general: Immunoblotting shows a protein as a band on a membrane.
The target in assay [2] is T1, HA-tagged KDM5C T1, aa (1–650) (UniProt P41229).
T1 sequence: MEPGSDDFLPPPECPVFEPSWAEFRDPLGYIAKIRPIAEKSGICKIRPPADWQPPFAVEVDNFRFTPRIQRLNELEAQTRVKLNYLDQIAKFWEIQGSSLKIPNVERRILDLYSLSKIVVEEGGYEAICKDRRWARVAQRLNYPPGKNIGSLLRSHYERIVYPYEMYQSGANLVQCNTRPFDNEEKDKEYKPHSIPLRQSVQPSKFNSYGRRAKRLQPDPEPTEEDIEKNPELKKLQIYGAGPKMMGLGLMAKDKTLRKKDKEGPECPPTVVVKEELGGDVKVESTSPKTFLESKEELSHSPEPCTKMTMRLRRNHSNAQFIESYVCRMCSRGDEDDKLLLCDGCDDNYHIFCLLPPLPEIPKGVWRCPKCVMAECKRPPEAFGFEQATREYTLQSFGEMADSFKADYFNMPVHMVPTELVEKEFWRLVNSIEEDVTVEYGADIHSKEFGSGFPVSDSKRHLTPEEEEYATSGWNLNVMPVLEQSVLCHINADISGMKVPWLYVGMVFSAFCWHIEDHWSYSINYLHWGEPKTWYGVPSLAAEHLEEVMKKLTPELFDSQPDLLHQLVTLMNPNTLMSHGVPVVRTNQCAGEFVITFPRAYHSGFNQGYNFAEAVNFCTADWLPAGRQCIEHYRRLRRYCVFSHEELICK
Nature of the assay: co-IP; transfected HEK293T cells; IP with anti-Flag M2 affinity gel or anti-HA agarose, 4 °C overnight, 150 mM KCl, 0.1% NP-40; immunoblotting.

Assay [3] deals with T2, HA-tagged KDM5C T5, aa (460–640) (UniProt P41229).
T2 sequence: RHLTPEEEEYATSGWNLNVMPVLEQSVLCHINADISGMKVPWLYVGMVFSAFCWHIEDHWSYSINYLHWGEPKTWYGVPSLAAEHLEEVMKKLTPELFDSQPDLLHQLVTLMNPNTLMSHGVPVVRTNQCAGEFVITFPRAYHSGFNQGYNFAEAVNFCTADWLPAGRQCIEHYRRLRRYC
Described as above.

The target of assay [4] is T3, ZMYND8 (immunoprecipitation of Figure S5F) (UniProt Q9ULU4).
T3 sequence: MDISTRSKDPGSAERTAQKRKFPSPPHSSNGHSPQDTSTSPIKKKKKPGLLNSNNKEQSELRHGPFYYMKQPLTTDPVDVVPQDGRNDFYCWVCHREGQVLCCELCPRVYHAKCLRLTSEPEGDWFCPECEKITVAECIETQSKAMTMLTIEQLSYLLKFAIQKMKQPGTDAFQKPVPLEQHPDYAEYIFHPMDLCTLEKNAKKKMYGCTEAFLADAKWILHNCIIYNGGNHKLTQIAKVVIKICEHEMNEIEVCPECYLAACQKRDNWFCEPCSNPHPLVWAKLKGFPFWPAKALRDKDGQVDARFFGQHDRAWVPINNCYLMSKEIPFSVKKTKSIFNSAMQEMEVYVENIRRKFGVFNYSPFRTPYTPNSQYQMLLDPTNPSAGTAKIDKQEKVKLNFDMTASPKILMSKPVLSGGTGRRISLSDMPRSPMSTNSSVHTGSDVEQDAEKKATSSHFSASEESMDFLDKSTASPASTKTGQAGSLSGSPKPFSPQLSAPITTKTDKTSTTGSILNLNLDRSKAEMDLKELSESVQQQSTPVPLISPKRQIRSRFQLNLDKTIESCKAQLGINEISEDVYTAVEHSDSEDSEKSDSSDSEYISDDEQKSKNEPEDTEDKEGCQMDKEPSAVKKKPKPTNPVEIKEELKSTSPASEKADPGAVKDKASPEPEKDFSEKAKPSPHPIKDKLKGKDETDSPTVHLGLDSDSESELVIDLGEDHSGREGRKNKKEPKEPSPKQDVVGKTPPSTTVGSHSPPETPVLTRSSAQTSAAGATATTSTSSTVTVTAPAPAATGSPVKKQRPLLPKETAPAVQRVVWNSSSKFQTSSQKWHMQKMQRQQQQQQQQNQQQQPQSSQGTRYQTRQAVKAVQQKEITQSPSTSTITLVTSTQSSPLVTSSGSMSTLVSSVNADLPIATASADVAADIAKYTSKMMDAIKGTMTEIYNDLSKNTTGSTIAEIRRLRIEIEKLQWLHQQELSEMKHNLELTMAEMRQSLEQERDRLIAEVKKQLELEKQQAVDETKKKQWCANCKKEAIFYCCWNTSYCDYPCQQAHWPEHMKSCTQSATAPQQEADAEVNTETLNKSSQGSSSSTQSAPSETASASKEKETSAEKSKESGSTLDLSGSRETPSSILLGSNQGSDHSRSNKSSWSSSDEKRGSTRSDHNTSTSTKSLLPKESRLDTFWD
Nature of the assay: co-IP; immunoprecipitation (Figure S5F); cells, antibodies and bait not given.

Assay [5] has as its target KDM5C (immunoprecipitation of Figure S5F) (UniProt P41229). The description is as above.
Assay [6] addresses KDM5C, endogenous in MCF7 (human (endogenous in MCF7)) (UniProt P41229). In words: co-IP; endogenous proteins, MCF7 cells treated with estrogen (E2, 10^-7 M, 1 h); IP with anti-KDM5C antibody; immunoblotting.

Turning to “CDK9, endogenous in MCF7 (from UniProt P50750 1-372)”, the binding entry in assay [1] is given as “binds”.
Regarding “Flag-tagged ERα, full length (from UniProt P03372 1-595) (receptor)”, the binding result in assay [2] and in assay [3] was “binds” in each case.
“P300 (immunoprecipitation of Figure S5F) (from UniProt Q09472 1-2414) (enzyme)”: the binding result in assay [4] and in assay [5] was “binds” throughout.
With “estrogen receptor alpha, endogenous in MCF7 (from UniProt P03372 1-595)”, in assay [6], the binding result is listed as “binds”.
